Measurements reported in PubChem BioAssay AID720505 (Drosophila RNAi Screening Center, 2013)

Assay: 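Genes needed for store-operated calcium entry in fly cells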 (primary screen)
Cells: Drosophila S2R+ cells
Reagent: long dsRNA against Drosophila genes
Conditions: thapsigargin (2 µM) in calcium-free buffer to empty internal stores, then 2 mM calcium added back
Measurement: 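Fluo-4 signal in 384-well plates read on a FLIPR after thapsigargin (2 µM, calcium-free) store depletion and 2 mM calcium add-back; unnormalised mean endpoint per well; screen run twice, selected wells retested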
Direction: calcium signal and retest calcium signal: higher = more calcium entry after store depletion
Rule for the call: 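About 1500 genes called as lowering calcium entry, by varying amounts, judged against per-plate control wells with STIM1 as positive and Rho1 as negative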
Meaning of the calls: active = called as lowering calcium entry; inactive = not called
The deposit covers about 20,000 reagents; this is a random part of those with a known target gene and a result. Over the whole deposit, about 2,100 (10%) were called active. 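Raw plate signals without normalisation; calls rest on control-based scores that were not deposited; replicate 2 separates called from uncalled poorly.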 Unmarked entries are inactive. Reagents against one gene are numbered here. A plus sign joins genes that one reagent is predicted to hit. The record does not give: the amount of reagent, the time to read-out.

no.	gene knocked down	reagent	calcium signal, replicate 1	calcium signal, replicate 2	retest calcium signal, replicate 1	retest calcium signal, replicate 2
1	CG14507	1	136	134		
2	CG11470	1	171	153		
3	CG18473	1	69.5 (active)	82.3		
4	Cyp4p2 (Cytochrome P450 4p2)	1	112	103		
5	Vps52 (Vacuolar protein sorting 52)	1	103	105		
6	CG43896	1	93.6	109		
7	CG43896	2	115	118		
8	CG6059	1	124	167		
9	CG31368	1	170	79.5		
10	CG31368	2	86.9	163		
11	CG32582 (retired record)	1	143	116		
12	Adf1 (Adh transcription factor 1)	1	104	87.2		
13	Adf1 (Adh transcription factor 1)	2	187	90.2		
14	Sarm (Sterile alpha and Armadillo motif)	1	100	83.7		
15	Sarm (Sterile alpha and Armadillo motif)	2	98.2	74		
16	Sarm (Sterile alpha and Armadillo motif)	3	97.1	84.9		
17	Sarm (Sterile alpha and Armadillo motif)	4	63.5 (active)	86		
18	CG43187	1	70.4	102		
19	Prosbeta4R1 (Proteasome beta4 subunit-related 1)	1	159	168		
20	Arpc3B (Actin-related protein 2/3 complex, subunit 3B)	1	86.4	105		
21	Srp54 (Splicing regulatory protein 54)	1	84.7	78.4		
22	PolrMT (RNA polymerase mitochondrial)	1	104	222		
23	aqz (aaquetzalli)	1	126	164		
24	mmy (mummy)	1	164	256		
25	Actn (alpha actinin)	1	110	111		
26	CG42237	1	72.1 (active)	110		
27	CtIP (CTBP-interacting protein)	1	81.3	139		
28	CG12991	1	89	111		
29	CLS (Cardiolipin synthase)	1	158	140		
30	wbl (windbeutel)	1	110	93.6		
31	tex	1	89	132		
32	nemy (no extended memory)	1	95.3	113		
33	nemy (no extended memory)	2	162	100	120	153
34	Ankrd49	1	97.6	106		
35	Miga (Mitoguardin)	1	214	135		
36	CG8389	1	130	137		
37	CG8389	2	84.2	87.3		
38	CG11334	1	82	107		
39	RtcB (RtcB RNA ligase)	1	162	88.6		
40	CR13656 (pseudo)	1	198	174		
41	CG15109	1	119	132		
42	Cyp12d1-d + Cyp12d1-p	1	174	117		
43	Taf3 (TBP-associated factor 3)	1	125	162		
44	Mnr (Membrane-bound Notch regulator)	1	207	88.2		
45	Mnr (Membrane-bound Notch regulator)	2	73.8 (active)	63.6	230	9350
46	Mnr (Membrane-bound Notch regulator)	3	114	216		
47	CG13203	1	91.7	154		
48	CG43132 (retired record)	1	90.9	165		
49	CG42505 + CG42504 + CG31358	1	143	152		
50	CG42505 + CG42504 + CG31358	2	120	81.9		
51	CG42505 + CG42504 + CG31358	3	50.5 (active)	173		
52	CG13907	1	107	112		
53	Antdh (Antennal dehydrogenase)	1	63.8 (active)	126		
54	CG18480	1	89.8	97.4		
55	nkt (noktochor)	1	103	100		
56	kri (krishah)	1	97.9	134		
